This is one part of the list. The calls rarely recur for the same compound in another form.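 Kinases were expressed as nanoluciferase fusions in K562 cells and luminescence was read every 4 h between 2 and 18 h as percent of control, DMSO set to 100% and a positive control to 0%. A time point counts as decreased when the signal drops significantly (2 sigma). The hit call is the authors' own, does not follow from the count of time points alone, and its rule is not shown.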
Assays:
Conditions in all cases: K562; 2-18 h
STK38 = STK38 (UniProt Q15208); experiment: kinase-Nluc reporter destabilization hit call (1 = scored as downregulated) (binary); higher = compound decreases kinase abundance
SYK = SYK (UniProt P43405); experiment: as above
TEC = TEC (UniProt P42680); experiment: as above
TYK2 = TYK2 (UniProt P29597); experiment: as above
ULK3 = ULK3 (UniProt Q6PHR2); experiment: as above
YES1 = YES1 (UniProt P07947); experiment: as above
ZAK = ZAK (UniProt Q9NYL2); experiment: as above
ZAP70 = ZAP70 (UniProt P43403); experiment: as above
ABL1 = ABL1 (UniProt P00519); experiment: number of time points (of 5) at which kinase-Nluc abundance scored as decreased, DMSO-normalised (count); higher = more persistent destabilization
AKT1 = AKT1 (UniProt P31749); experiment: as above

The chains behind the UniProt entries cited, without tags or fusion partners. Where a name states a change or a piece, a line headed by the entry shows the natural chain unless it says otherwise.
UniProt Q15208: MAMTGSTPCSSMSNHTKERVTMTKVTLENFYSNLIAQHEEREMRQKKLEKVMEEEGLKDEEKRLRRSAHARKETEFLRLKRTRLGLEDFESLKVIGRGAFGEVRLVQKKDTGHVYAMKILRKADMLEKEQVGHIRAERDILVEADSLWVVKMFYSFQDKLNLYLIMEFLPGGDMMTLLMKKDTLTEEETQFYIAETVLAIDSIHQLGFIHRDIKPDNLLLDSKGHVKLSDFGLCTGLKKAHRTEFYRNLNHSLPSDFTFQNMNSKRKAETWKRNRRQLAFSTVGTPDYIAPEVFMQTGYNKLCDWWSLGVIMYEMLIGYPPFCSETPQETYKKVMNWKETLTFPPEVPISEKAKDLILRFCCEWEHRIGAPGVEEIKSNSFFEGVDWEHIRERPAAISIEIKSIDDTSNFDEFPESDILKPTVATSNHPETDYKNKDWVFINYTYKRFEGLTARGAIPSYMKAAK
UniProt P42680: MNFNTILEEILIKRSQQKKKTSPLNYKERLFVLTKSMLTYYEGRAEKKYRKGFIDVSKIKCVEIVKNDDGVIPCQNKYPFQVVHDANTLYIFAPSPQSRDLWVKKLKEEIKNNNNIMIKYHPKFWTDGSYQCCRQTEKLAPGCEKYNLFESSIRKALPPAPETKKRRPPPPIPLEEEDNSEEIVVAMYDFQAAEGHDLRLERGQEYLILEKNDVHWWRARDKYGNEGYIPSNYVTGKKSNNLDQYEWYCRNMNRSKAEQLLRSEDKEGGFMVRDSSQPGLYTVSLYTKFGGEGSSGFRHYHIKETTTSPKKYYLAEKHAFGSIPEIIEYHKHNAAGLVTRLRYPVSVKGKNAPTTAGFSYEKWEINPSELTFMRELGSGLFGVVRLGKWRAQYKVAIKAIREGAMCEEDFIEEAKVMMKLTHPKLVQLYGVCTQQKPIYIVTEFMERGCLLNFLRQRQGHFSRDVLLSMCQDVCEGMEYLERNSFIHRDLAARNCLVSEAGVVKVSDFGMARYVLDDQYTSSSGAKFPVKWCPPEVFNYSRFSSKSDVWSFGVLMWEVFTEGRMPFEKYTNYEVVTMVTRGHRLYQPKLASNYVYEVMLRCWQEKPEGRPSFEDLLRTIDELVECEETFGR
UniProt P29597: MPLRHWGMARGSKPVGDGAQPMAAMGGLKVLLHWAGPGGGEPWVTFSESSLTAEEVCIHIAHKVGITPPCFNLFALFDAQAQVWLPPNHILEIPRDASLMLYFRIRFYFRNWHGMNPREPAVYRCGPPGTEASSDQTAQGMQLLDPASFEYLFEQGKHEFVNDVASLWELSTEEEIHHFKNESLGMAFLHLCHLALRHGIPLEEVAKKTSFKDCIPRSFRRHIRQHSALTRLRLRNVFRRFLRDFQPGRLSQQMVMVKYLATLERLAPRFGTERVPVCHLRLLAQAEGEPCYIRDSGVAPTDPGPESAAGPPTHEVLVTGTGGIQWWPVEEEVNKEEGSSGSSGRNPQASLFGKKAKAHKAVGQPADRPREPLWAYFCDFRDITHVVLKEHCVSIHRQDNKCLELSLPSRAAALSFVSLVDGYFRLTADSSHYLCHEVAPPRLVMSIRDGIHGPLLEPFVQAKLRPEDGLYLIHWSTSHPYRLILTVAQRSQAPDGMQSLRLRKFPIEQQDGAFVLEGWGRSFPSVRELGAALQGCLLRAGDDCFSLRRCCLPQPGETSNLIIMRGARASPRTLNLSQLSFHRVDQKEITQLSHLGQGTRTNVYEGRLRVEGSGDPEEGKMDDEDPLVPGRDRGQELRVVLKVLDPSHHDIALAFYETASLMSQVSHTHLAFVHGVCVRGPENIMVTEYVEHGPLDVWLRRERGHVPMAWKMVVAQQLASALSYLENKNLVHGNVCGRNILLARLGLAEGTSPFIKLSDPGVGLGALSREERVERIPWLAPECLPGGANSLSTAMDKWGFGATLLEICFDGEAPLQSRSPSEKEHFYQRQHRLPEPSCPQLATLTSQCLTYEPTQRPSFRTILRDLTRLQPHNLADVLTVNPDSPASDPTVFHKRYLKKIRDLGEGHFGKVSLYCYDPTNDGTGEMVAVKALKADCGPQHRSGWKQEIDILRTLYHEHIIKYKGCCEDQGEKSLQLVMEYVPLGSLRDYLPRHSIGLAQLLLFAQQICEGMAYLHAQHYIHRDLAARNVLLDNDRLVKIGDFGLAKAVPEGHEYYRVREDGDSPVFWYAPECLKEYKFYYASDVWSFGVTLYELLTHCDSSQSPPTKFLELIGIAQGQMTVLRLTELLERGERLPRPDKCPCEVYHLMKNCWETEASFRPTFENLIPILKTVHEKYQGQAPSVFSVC
UniProt Q6PHR2: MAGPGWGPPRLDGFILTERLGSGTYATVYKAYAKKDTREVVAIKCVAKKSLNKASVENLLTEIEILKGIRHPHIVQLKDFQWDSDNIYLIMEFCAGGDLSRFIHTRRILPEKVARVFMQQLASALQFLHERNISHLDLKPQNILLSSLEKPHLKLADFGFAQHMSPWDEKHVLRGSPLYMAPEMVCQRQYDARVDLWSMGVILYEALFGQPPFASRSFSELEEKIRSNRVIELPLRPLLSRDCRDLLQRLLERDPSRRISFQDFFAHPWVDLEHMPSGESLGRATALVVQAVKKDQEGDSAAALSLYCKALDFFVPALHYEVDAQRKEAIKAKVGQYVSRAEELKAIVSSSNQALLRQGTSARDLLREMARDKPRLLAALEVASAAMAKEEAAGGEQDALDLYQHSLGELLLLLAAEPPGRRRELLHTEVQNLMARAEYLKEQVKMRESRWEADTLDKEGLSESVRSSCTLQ
UniProt P07947, whole entry, looked up: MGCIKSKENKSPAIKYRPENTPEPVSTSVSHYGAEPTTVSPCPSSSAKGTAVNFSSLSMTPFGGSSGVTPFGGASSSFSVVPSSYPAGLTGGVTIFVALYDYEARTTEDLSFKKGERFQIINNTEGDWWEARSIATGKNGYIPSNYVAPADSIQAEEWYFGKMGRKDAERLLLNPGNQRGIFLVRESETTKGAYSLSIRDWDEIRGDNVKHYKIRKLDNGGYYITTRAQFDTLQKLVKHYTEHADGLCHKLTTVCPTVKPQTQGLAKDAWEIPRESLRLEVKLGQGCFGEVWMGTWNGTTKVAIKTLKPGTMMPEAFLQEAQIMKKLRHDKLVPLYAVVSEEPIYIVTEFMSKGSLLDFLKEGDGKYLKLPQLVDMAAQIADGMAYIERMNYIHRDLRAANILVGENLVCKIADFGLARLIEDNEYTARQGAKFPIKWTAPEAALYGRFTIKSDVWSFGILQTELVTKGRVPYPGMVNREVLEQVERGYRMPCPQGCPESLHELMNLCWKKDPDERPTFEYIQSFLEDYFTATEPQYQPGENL
UniProt P43403: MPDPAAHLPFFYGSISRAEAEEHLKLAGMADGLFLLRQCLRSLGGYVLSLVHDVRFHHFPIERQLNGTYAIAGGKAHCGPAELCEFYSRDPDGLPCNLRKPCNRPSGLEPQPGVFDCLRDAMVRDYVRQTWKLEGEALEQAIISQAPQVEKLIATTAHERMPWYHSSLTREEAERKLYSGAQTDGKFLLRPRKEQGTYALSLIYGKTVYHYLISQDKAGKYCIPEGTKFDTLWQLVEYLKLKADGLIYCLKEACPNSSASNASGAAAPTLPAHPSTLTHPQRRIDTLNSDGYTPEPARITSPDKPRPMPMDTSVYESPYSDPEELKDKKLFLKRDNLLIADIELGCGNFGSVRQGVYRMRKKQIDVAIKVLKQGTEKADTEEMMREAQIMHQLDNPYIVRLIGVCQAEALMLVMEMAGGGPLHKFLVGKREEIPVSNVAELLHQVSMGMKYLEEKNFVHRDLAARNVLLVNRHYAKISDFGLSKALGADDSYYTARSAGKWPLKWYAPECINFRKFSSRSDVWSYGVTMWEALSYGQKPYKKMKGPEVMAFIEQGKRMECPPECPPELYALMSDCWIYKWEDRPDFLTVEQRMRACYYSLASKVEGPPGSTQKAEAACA
UniProt P00519, whole entry: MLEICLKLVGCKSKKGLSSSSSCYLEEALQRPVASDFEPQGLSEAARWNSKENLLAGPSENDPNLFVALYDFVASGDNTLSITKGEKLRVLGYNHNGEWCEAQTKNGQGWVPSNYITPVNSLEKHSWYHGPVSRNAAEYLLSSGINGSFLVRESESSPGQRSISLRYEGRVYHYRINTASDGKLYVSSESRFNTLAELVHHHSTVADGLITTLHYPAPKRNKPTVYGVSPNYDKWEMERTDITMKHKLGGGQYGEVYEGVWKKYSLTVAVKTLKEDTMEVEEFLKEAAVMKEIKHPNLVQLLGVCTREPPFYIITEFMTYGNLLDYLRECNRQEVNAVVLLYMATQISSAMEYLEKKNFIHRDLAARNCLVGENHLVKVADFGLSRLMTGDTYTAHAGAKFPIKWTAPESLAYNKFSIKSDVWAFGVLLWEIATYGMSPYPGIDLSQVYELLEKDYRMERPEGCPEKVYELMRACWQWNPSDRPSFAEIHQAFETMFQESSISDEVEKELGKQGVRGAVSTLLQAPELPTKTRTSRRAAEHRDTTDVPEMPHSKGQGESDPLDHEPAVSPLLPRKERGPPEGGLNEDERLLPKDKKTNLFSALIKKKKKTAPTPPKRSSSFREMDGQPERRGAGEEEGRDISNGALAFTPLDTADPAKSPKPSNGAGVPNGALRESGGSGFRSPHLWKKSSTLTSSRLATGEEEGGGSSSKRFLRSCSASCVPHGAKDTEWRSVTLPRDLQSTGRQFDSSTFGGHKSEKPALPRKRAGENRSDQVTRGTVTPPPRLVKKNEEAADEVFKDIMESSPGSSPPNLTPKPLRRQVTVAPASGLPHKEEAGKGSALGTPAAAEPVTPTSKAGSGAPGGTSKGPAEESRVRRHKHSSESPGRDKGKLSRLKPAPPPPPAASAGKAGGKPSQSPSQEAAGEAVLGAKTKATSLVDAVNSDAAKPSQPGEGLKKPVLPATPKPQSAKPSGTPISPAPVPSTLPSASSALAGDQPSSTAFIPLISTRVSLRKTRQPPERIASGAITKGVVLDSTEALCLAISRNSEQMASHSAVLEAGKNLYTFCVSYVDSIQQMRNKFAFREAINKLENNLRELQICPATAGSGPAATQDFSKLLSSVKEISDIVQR
UniProt P31749: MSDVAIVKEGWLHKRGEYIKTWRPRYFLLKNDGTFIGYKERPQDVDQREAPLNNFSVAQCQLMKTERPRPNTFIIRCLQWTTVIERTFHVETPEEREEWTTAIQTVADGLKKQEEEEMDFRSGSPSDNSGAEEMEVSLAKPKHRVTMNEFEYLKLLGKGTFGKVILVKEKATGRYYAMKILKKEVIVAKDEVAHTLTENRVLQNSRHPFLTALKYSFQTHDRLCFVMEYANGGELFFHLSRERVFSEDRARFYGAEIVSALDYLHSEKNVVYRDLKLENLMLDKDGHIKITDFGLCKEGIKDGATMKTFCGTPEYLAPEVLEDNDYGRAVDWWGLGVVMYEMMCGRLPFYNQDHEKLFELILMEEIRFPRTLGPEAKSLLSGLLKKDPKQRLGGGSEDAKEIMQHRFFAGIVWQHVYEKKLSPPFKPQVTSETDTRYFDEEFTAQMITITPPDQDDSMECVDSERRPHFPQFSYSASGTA

C[C@H](Nc1ncnc2[nH]cnc12)c1cc2ccc(F)cc2nc1-c1ccccn1 (10 µM)
inactive: kinase-Nluc reporter destabilization hit call (STK38) 0 | kinase-Nluc reporter destabilization hit call (SYK) 0 | kinase-Nluc reporter destabilization hit call (TEC) 0 | kinase-Nluc reporter destabilization hit call (TYK2) 0 | kinase-Nluc reporter destabilization hit call (ULK3) 0 | kinase-Nluc reporter destabilization hit call (YES1) 0 | kinase-Nluc reporter destabilization hit call (ZAK) 0 | kinase-Nluc reporter destabilization hit call (ZAP70) 0
0: number of time points (ABL1) | number of time points (AKT1)

CC(C)=CC(=O)O[C@H]1Cc2cc3ccc(=O)oc3cc2OC1(C)C [Decursin] (10 µM)
0: number of time points (ABL1) | number of time points (AKT1)
inactive: kinase-Nluc reporter destabilization hit call (STK38) 0 | kinase-Nluc reporter destabilization hit call (SYK) 0 | kinase-Nluc reporter destabilization hit call (TEC) 0 | kinase-Nluc reporter destabilization hit call (TYK2) 0 | kinase-Nluc reporter destabilization hit call (ULK3) 0 | kinase-Nluc reporter destabilization hit call (YES1) 0 | kinase-Nluc reporter destabilization hit call (ZAK) 0 | kinase-Nluc reporter destabilization hit call (ZAP70) 0

O=C(Nc1cccc(C(F)(F)F)c1)c1cccc2cc(Oc3cc(CO)ncn3)ccc12 (10 µM)
inactive: kinase-Nluc reporter destabilization hit call (STK38) 0 | kinase-Nluc reporter destabilization hit call (SYK) 0 | kinase-Nluc reporter destabilization hit call (TEC) 0 | kinase-Nluc reporter destabilization hit call (TYK2) 0 | kinase-Nluc reporter destabilization hit call (ULK3) 0 | kinase-Nluc reporter destabilization hit call (YES1) 0 | kinase-Nluc reporter destabilization hit call (ZAK) 0 | kinase-Nluc reporter destabilization hit call (ZAP70) 0
0: number of time points (ABL1) | number of time points (AKT1)

CN(C)S(=O)(=O)c1ccc2c(c1)/C(=C/c1cc3c([nH]1)CCCC3)C(=O)N2 (2.5 µM)
0: number of time points (AKT1)
inactive: kinase-Nluc reporter destabilization hit call (STK38) 0 | kinase-Nluc reporter destabilization hit call (SYK) 0 | kinase-Nluc reporter destabilization hit call (TEC) 0 | kinase-Nluc reporter destabilization hit call (TYK2) 0 | kinase-Nluc reporter destabilization hit call (ULK3) 0 | kinase-Nluc reporter destabilization hit call (YES1) 0 | kinase-Nluc reporter destabilization hit call (ZAK) 0 | kinase-Nluc reporter destabilization hit call (ZAP70) 0
4: number of time points (ABL1)

COc1cc(N2CCOCC2)ccc1NC(=O)c1csc(-c2cccnc2)n1 [IRAK inhibitor 6] (10 µM)
inactive: kinase-Nluc reporter destabilization hit call (STK38) 0 | kinase-Nluc reporter destabilization hit call (SYK) 0 | kinase-Nluc reporter destabilization hit call (TEC) 0 | kinase-Nluc reporter destabilization hit call (TYK2) 0 | kinase-Nluc reporter destabilization hit call (ULK3) 0 | kinase-Nluc reporter destabilization hit call (YES1) 0 | kinase-Nluc reporter destabilization hit call (ZAK) 0 | kinase-Nluc reporter destabilization hit call (ZAP70) 0
0: number of time points (ABL1) | number of time points (AKT1)

CCN(CC)CCC(=O)N1N=C(c2c(-c3ccccc3)c3cc(Br)ccc3[nH]c2=O)CC1c1ccc(Br)cc1 (stereo not given) (2.5 µM)
inactive: kinase-Nluc reporter destabilization hit call (STK38) 0 | kinase-Nluc reporter destabilization hit call (SYK) 0 | kinase-Nluc reporter destabilization hit call (TEC) 0 | kinase-Nluc reporter destabilization hit call (TYK2) 0 | kinase-Nluc reporter destabilization hit call (ULK3) 0 | kinase-Nluc reporter destabilization hit call (YES1) 0 | kinase-Nluc reporter destabilization hit call (ZAK) 0 | kinase-Nluc reporter destabilization hit call (ZAP70) 0
0: number of time points (ABL1) | number of time points (AKT1)

Sorted by heavy-atom count (falling): 3 of the compounds above
CCN(CC)CCC(=O)N1N=C(c2c(-c3ccccc3)c3cc(Br)ccc3[nH]c2=O)CC1c1ccc(Br)cc1 (stereo not given) (2.5 µM)
inactive: kinase-Nluc reporter destabilization hit call (STK38) 0 | kinase-Nluc reporter destabilization hit call (SYK) 0 | kinase-Nluc reporter destabilization hit call (TEC) 0 | kinase-Nluc reporter destabilization hit call (TYK2) 0 | kinase-Nluc reporter destabilization hit call (ULK3) 0 | kinase-Nluc reporter destabilization hit call (YES1) 0 | kinase-Nluc reporter destabilization hit call (ZAK) 0 | kinase-Nluc reporter destabilization hit call (ZAP70) 0
0: number of time points (ABL1) | number of time points (AKT1)

COc1cc(N2CCOCC2)ccc1NC(=O)c1csc(-c2cccnc2)n1 [IRAK inhibitor 6] (10 µM)
inactive: kinase-Nluc reporter destabilization hit call (STK38) 0 | kinase-Nluc reporter destabilization hit call (SYK) 0 | kinase-Nluc reporter destabilization hit call (TEC) 0 | kinase-Nluc reporter destabilization hit call (TYK2) 0 | kinase-Nluc reporter destabilization hit call (ULK3) 0 | kinase-Nluc reporter destabilization hit call (YES1) 0 | kinase-Nluc reporter destabilization hit call (ZAK) 0 | kinase-Nluc reporter destabilization hit call (ZAP70) 0
0: number of time points (ABL1) | number of time points (AKT1)

CC(C)=CC(=O)O[C@H]1Cc2cc3ccc(=O)oc3cc2OC1(C)C [Decursin] (10 µM)
0: number of time points (ABL1) | number of time points (AKT1)
inactive: kinase-Nluc reporter destabilization hit call (STK38) 0 | kinase-Nluc reporter destabilization hit call (SYK) 0 | kinase-Nluc reporter destabilization hit call (TEC) 0 | kinase-Nluc reporter destabilization hit call (TYK2) 0 | kinase-Nluc reporter destabilization hit call (ULK3) 0 | kinase-Nluc reporter destabilization hit call (YES1) 0 | kinase-Nluc reporter destabilization hit call (ZAK) 0 | kinase-Nluc reporter destabilization hit call (ZAP70) 0

Further compounds

C=CC(=O)Nc1cc(Nc2nccc(-n3cc(CN(C)C)c(-c4ccccc4)n3)n2)c(OC)cc1N1CCOCC1 [Lazertinib] (10 µM)
inactive: kinase-Nluc reporter destabilization hit call (STK38) 0 | kinase-Nluc reporter destabilization hit call (SYK) 0 | kinase-Nluc reporter destabilization hit call (TEC) 0 | kinase-Nluc reporter destabilization hit call (TYK2) 0 | kinase-Nluc reporter destabilization hit call (ULK3) 0 | kinase-Nluc reporter destabilization hit call (YES1) 0 | kinase-Nluc reporter destabilization hit call (ZAK) 0 | kinase-Nluc reporter destabilization hit call (ZAP70) 0
0: number of time points (ABL1) | number of time points (AKT1)

COc1cc(-c2cn[nH]c2)ccc1C(=O)Nc1ccc2c(c1)CCNCC2 (10 µM)
0: number of time points (ABL1) | number of time points (AKT1)
inactive: kinase-Nluc reporter destabilization hit call (STK38) 0 | kinase-Nluc reporter destabilization hit call (SYK) 0 | kinase-Nluc reporter destabilization hit call (TEC) 0 | kinase-Nluc reporter destabilization hit call (TYK2) 0 | kinase-Nluc reporter destabilization hit call (ULK3) 0 | kinase-Nluc reporter destabilization hit call (YES1) 0 | kinase-Nluc reporter destabilization hit call (ZAK) 0 | kinase-Nluc reporter destabilization hit call (ZAP70) 0

Cc1ccc(-c2csc3ncnc(SCCC(=O)O)c23)cc1 (10 µM)
inactive: kinase-Nluc reporter destabilization hit call (STK38) 0 | kinase-Nluc reporter destabilization hit call (SYK) 0 | kinase-Nluc reporter destabilization hit call (TEC) 0 | kinase-Nluc reporter destabilization hit call (TYK2) 0 | kinase-Nluc reporter destabilization hit call (ULK3) 0 | kinase-Nluc reporter destabilization hit call (YES1) 0 | kinase-Nluc reporter destabilization hit call (ZAK) 0 | kinase-Nluc reporter destabilization hit call (ZAP70) 0
0: number of time points (ABL1) | number of time points (AKT1)

Oc1cc(O)c2c(c1)OC1(c3ccc(O)c(O)c3)Oc3cc(O)c4c(c3C2C1O)OC(c1ccc(O)c(O)c1)C(O)C4 (stereo not given) [Procyanidin A1] (10 µM)
0: number of time points (ABL1) | number of time points (AKT1)
inactive: kinase-Nluc reporter destabilization hit call (STK38) 0 | kinase-Nluc reporter destabilization hit call (SYK) 0 | kinase-Nluc reporter destabilization hit call (TEC) 0 | kinase-Nluc reporter destabilization hit call (TYK2) 0 | kinase-Nluc reporter destabilization hit call (ULK3) 0 | kinase-Nluc reporter destabilization hit call (YES1) 0 | kinase-Nluc reporter destabilization hit call (ZAK) 0 | kinase-Nluc reporter destabilization hit call (ZAP70) 0

CNc1nc(Nc2cn(C(C)(C)C#N)nc2C)ncc1C(F)(F)F (10 µM)
inactive: kinase-Nluc reporter destabilization hit call (STK38) 0 | kinase-Nluc reporter destabilization hit call (SYK) 0 | kinase-Nluc reporter destabilization hit call (TEC) 0 | kinase-Nluc reporter destabilization hit call (TYK2) 0 | kinase-Nluc reporter destabilization hit call (ULK3) 0 | kinase-Nluc reporter destabilization hit call (YES1) 0 | kinase-Nluc reporter destabilization hit call (ZAK) 0 | kinase-Nluc reporter destabilization hit call (ZAP70) 0
0: number of time points (ABL1) | number of time points (AKT1)

CN1CCC(c2ccccc2CC(C)(C)Nc2nc(N3CCOCC3)nc(-n3c(C(F)F)nc4ccccc43)n2)CC1 [Zandelisib] (10 µM)
inactive: kinase-Nluc reporter destabilization hit call (STK38) 0 | kinase-Nluc reporter destabilization hit call (SYK) 0 | kinase-Nluc reporter destabilization hit call (TEC) 0 | kinase-Nluc reporter destabilization hit call (TYK2) 0 | kinase-Nluc reporter destabilization hit call (ULK3) 0 | kinase-Nluc reporter destabilization hit call (YES1) 0 | kinase-Nluc reporter destabilization hit call (ZAK) 0 | kinase-Nluc reporter destabilization hit call (ZAP70) 0
0: number of time points (ABL1) | number of time points (AKT1)

O=C1NC(=Nc2c(Cl)cccc2Cl)S/C1=C\c1ccc2nccnc2c1 (2.5 µM)
2: number of time points (ABL1)
inactive: kinase-Nluc reporter destabilization hit call (STK38) 0 | kinase-Nluc reporter destabilization hit call (SYK) 0 | kinase-Nluc reporter destabilization hit call (TEC) 0 | kinase-Nluc reporter destabilization hit call (TYK2) 0 | kinase-Nluc reporter destabilization hit call (ULK3) 0 | kinase-Nluc reporter destabilization hit call (YES1) 0 | kinase-Nluc reporter destabilization hit call (ZAK) 0 | kinase-Nluc reporter destabilization hit call (ZAP70) 0
0: number of time points (AKT1)

Cn1ncc2cc(-c3cnc(N)c(Cl)c3N3CCC4(CCNC4=O)CC3)ccc21 (10 µM)
0: number of time points (ABL1) | number of time points (AKT1)
inactive: kinase-Nluc reporter destabilization hit call (STK38) 0 | kinase-Nluc reporter destabilization hit call (SYK) 0 | kinase-Nluc reporter destabilization hit call (TEC) 0 | kinase-Nluc reporter destabilization hit call (TYK2) 0 | kinase-Nluc reporter destabilization hit call (ULK3) 0 | kinase-Nluc reporter destabilization hit call (YES1) 0 | kinase-Nluc reporter destabilization hit call (ZAK) 0 | kinase-Nluc reporter destabilization hit call (ZAP70) 0

From the supplement of paper PMC12823440, “Inhibitors supercharge kinase turnover through native proteolytic circuits” (Nature, 2025)
